These are yes or no findings as the source states them, for the method shown. Binding seen in cells or lysates may run through a third protein. Some binding calls cover weakened binding; strength is not graded here.

The assay addresses T1, Bak (endogenous, mitochondria of A549 cells) (human (endogenous in A549)), Q16611.
T1 chain: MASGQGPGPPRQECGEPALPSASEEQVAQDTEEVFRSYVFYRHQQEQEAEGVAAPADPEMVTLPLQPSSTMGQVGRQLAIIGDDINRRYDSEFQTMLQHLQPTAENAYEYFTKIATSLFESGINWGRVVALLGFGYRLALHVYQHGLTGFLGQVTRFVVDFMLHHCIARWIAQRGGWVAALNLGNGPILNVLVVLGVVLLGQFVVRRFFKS
Kind of assay: cross-linking; mitochondria isolated from A549 xenograft tumor tissues of mice treated with BKA-073 (0, 5, 10, 15 mg/kg/d, 28 days); cross-linking with BMH; Western blot for Bak. To be noted: remark: other sources report otherwise. (In general: In western blotting, separated proteins are transferred to a membrane and probed.)

B1: Bak (endogenous, mitochondria of A549 cells), Q16611 1-211 (natural protein)
chain: MASGQGPGPPRQECGEPALPSASEEQVAQDTEEVFRSYVFYRHQQEQEAEGVAAPADPEMVTLPLQPSSTMGQVGRQLAIIGDDINRRYDSEFQTMLQHLQPTAENAYEYFTKIATSLFESGINWGRVVALLGFGYRLALHVYQHGLTGFLGQVTRFVVDFMLHHCIARWIAQRGGWVAALNLGNGPILNVLVVLGVVLLGQFVVRRFFKS
As to B1, the binding result is recorded as “binds”.

These data come from publication PMC8344021, “Discovery of Small Molecule Bak Activator for Lung Cancer Therapy” (Theranostics, 2021).
